These results are taken from PubChem BioAssay AID493014 (National Center for Advancing Translational Sciences (NCATS), 2011).

The list shows a part of the results. The main result of the screen is listed elsewhere. These columns were measured beside it and carry no call. Most of these compounds were active or inconclusive in the main read-out, so they are no random draw. Potencies come from curve fits of mixed quality, noted in brackets.

The test in a line: qHTS Assay to Find Inhibitors of Chronic Active B-Cell Receptor Signaling. To be noted: ABC-DLBCL IkBa-CBG/CBR reporter, luminescence ratio (green luciferase fused to IkBa over red control in TMD8 lymphoma cells), 4 h. In outline:
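TMD8 ABC-DLBCL cells carrying doxycycline-inducible green luciferase fused to IkappaBalpha plus unfused red luciferase were exposed to compounds (up to 46 uM) for 4 hrs at 37C. Activity came from the overlap-corrected green/red luminescence ratio.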
In general terms: qHTS replaces the single test concentration by a dilution series.

Setting [1] is: measured here: CBR red luminescence, cell number.
[2] abbreviates: measured here: IkBa-CBG green luminescence.

`c1ccc(-c2ccc(-c3nc(-c4cccnc4)no3)cc2)cc1`: the AC50 under setting [1] is 6.31 µM [rising, single point].
Same read-out and setting: under `O=C(COC(=O)c1ccccc1C(=O)c1ccc(Cl)c([N+](=O)[O-])c1)NC1CCCCCC1` stands 7.31 µM [falling, partial curve]; under `Cc1ccc(SCCNS(C)(=O)=O)cc1`, 10.3 µM [rising, partial curve, poor fit].
Consider `CCCCN1C(=O)C2(NNc3ccccc3O2)c2ccccc21` (configuration not stated), for which the AC50 under setting [1] is 29.1 µM [falling, single point].
Still for that read-out and setting: under `CC1CCN(c2nc(N(C)c3ccccc3)nc(N)c2[N+](=O)[O-])CC1` stands 3.16 µM [rising, full curve]; under `CC1CC1c1ccc(/C=C(\C#N)C(=O)Nc2ccc(Cl)cc2)o1` (configuration not stated), 20.6 µM [falling, partial curve]; under `O=C(CSc1nc2ccccc2c(=O)n1-c1ccccc1Cl)NCC1CCCO1` (configuration not stated), 11.6 µM [rising, partial curve, poor fit].
`CCOC(=O)COc1c(OC)cc(Cl)cc1C1Nc2ccccc2C(=O)N1c1ccc(F)cc1` (configuration not stated): under setting [1], the AC50 is 2.24 µM [falling, partial curve, poor fit].
As for `CCOc1cc(/C=N/n2c(C)nnc2C)ccc1O`, the AC50 under setting [1] is 35.5 µM [falling, single point].
Turning to `COc1ccccc1/C=C/C(=O)c1ccccc1`, the AC50 under setting [1] was 11.2 µM [falling, partial curve].
As for `CCCCNC(=O)c1onc(CSc2ccccc2C)c1C(=O)O`, the AC50 under setting [2] was 35.5 µM [rising, partial curve, poor fit].
Turning to `O=C(O)c1ccc(-c2nnc(-c3cccc(Br)c3)o2)cc1`, the AC50 under setting [1] is 2.24 µM [falling, full curve].
Same read-out and setting: under `COc1ccc(N2C(=O)CSC23C(=O)Nc2ccccc23)cc1OC` (configuration not stated) stands 11.2 µM [rising, partial curve, poor fit]; under `COc1cccc(-n2nc(-c3ccnn3-c3ccccc3)c(=O)n(C)c2=O)c1`, 16.4 µM [falling, single point].
`Cc1ccc2nc(C)cc(C(=O)OCC(=O)c3ccc(Cl)c([N+](=O)[O-])c3)c2c1`: the half-maximal activity concentration (AC50) under setting [1] was 22.4 µM [falling, single point].
In the case of `COc1ccccc1C1=NNC(=Nc2cccc(S(=O)(=O)N(C)C)c2)SC1`, the AC50 under setting [1] was 12.6 µM [falling, partial curve].
On to `Cc1ccc(N2CCN(CC(O)COc3cccc(C)c3)CC2)cc1` (configuration not stated), for which the half-maximal activity concentration (AC50) under setting [1] is 7.94 µM [rising, partial curve].
Same read-out and setting: under `N#Cc1cc(S(=O)(=O)c2ccccc2)c(N)[nH]c1=O` stands 23.1 µM [falling, partial curve]; under `O=C(Nc1ccc2c(c1)CCC2)c1ccc(Br)s1`, 14.1 µM [falling, single point]; under `Cn1cc(-c2nnc(-c3ccccc3)o2)c2ccccc21`, 1.12 µM [falling, full curve].
Still for that read-out and setting: under `CCOc1ccc(/C=N/NC(=O)c2cc3c(OC)cccc3[nH]2)cc1` stands 3.16 µM [falling, full curve]; under `CCN1CCN(S(=O)(=O)c2ccc3c(c2)OCCO3)CC1`, 0.00461 µM [falling, full curve]; under `O=C(COC(=O)CNC(=O)c1cccc(Br)c1)Nc1nnc(-c2ccccc2)o1`, 23.1 µM [falling, partial curve, poor fit].
Still for that read-out and setting: under `Cc1c(-c2cc(Br)ccc2O)nc2cc3c(cc2c1C)OCO3` stands 1.41 µM [rising, full curve]; under `COc1cccc(NC(=O)CN(C)C(=O)c2cc(-c3cccc(Br)c3)nc3ccccc23)c1`, 14.6 µM [falling, single point]; under `CC(=O)c1cccc(NC(=O)c2cc(=O)[nH]c3ccccc23)c1`, 6.31 µM [rising, single point].
Turning to `CCOC(=O)C(=Cc1ccc(-n2cncn2)cc1)C(=O)OCC`, the AC50 under setting [1] is 10 µM [falling, partial curve, poor fit].
On to `O=[N+]([O-])c1ccc2nc(SCc3cn4cccnc4n3)[nH]c2c1`, for which the AC50 under setting [1] was 5.62 µM [rising, partial curve, poor fit].
As for `CCOC(=O)c1sc(NC(=O)/C=C/c2c(F)cccc2Cl)nc1C`, the concentration at half-maximal activity (AC50) under setting [1] is 0.0651 µM [falling, full curve].
As for `COc1ccc2nc(NC(=O)C3CSC4(C)CCC(=O)N34)sc2c1` (configuration not stated), the AC50 under setting [1] was 13 µM [falling, partial curve, poor fit].
The same measure, in the same setting: under `O=C(CNC(=O)c1sc2ccccc2c1Cl)NCc1cccnc1` stands 5.01 µM [falling, partial curve]; under `CCCCN(C)CCNC(=O)c1cc2c(-c3cccc(OC)c3)nn(C)c2s1`, 35.5 µM [falling, single point].
On the same count and under the same terms, under `O=C(CCNc1cccc(C(F)(F)F)c1)c1ccco1` stands 29.1 µM [falling, single point]; under `COC(=O)c1sc2ccccc2c1NC(=O)c1ccc(S(=O)(=O)N2CC(C)CC(C)C2)cc1` (configuration not stated), 29.1 µM [rising, single point]; under `OCCN(/C=N/c1nc(-c2ccc(Br)cc2)cs1)CCO`, 1.64 µM [rising, full curve, poor fit].
Take `O=C(NNC(=O)c1cnccn1)c1ccc(Cl)cc1`: the AC50 under setting [1] was 12.6 µM [falling, partial curve].
As to `CCOc1ccc(C(=O)Nc2ccccc2C(=O)O)cc1`, the AC50 under setting [1] was 1.78 µM [falling, full curve].
On to `CCCCC[C@H](O)/C=C/[C@@H]1[C@@H](CCCCCCC(=O)O)[C@@H](O)C[C@H]1O`, for which the AC50 by setting is: under setting [1], 9.2 µM [rising, partial curve]; under setting [2], 2.82 µM [falling, full curve].
`NNC(=O)c1cccc(COc2ccc3c(c2)CCC3)c1`: the AC50 under setting [1] was 16.4 µM [falling, partial curve].
The same measure, in the same setting: under `CCCCN(CC)CCNc1c(NC2CCN(C(=O)OCC)CC2)c(=O)c1=O` stands 0.82 µM [falling, full curve, poor fit].
For the molecule `Cc1nnc2sc(SCC(=O)Nc3nccs3)nn2c1=O`, the AC50 under setting [1] is 5.8 µM [falling, partial curve, poor fit].
For `COc1cc(C(=S)N2CCCC2)cc(Cl)c1OCC(=O)Nc1ccc(C)cc1C`, the AC50 under setting [1] was 0.146 µM [falling, single point].
The same measure, in the same setting: under `CC(=O)C(C(C)=O)c1c(Cl)c(O)c(O)c2c(C(=O)c3ccccc3)coc12` stands 35.5 µM [falling, partial curve, poor fit]; under `COc1ccccc1NC(=O)COC(=O)c1c[nH]c2ccccc12`, 0.326 µM [falling, partial curve, poor fit].
As to `O=C(CCC(=O)OCc1ccc(C(=O)Oc2ccccc2)cc1)Nc1cccc2ccccc12`, under setting [1], the AC50 was 35.5 µM [rising, partial curve, poor fit].
Same read-out and setting: under `O=C(Nc1ccc(N2C(=O)C3CCCCC3C2=O)cc1Cl)c1cccs1` (configuration not stated) stands 12.6 µM [falling, partial curve, poor fit].
Same read-out and setting: under `COC(=O)c1ccc2c(=O)n(CCCN3CCCC3=O)c(=S)[nH]c2c1` stands 6.51 µM [falling, full curve, poor fit].
Same read-out and setting: under `CC(=O)c1ccc(N2CCCC2)c(F)c1` stands 16.4 µM [rising, single point].
In the case of `CS(=O)(=O)N1CCC(C(=O)NCCC2=CCCCC2)CC1`, under setting [1], the AC50 was 0.326 µM [rising, full curve, poor fit].
On the same count and under the same terms, under `Cc1cc(C(=O)N/N=C/c2ccccc2[N+](=O)[O-])c(C)o1` stands 22.4 µM [falling, partial curve, poor fit]; under `COC(=O)c1ccc(C2c3c(oc4cc(C)c(C)cc4c3=O)C(=O)N2CCCN(C)C)cc1` (configuration not stated), 7.08 µM [falling, partial curve, poor fit]; under `CC(C)CNC(=O)c1cc(-c2ccc3c(c2)OCO3)on1`, 4.47 µM [falling, full curve].
As for `Cc1[nH]c(C)c(S(=O)(=O)N2CCCCC2C)c1C(=O)N1CCCC1` (configuration not stated), the AC50 under setting [1] was 20 µM [rising, partial curve, poor fit].
For the molecule `Cn1c(SCC(=O)Nc2cccnc2Cl)nc2ccccc21`, the AC50 was 25.9 µM [rising, single point] under setting [1] and 20.6 µM [falling, single point] under setting [2].
Consider `Cc1cc(C)cc(NC(=O)C2CCN(C(=O)[C@@H]3Cc4ccccc4CN3)CC2)c1`, for which, under setting [1], the AC50 was 10 µM [falling, partial curve].
On the same count and under the same terms, under `COc1ccc2c(c1OC)C(=O)OC2Nc1nc(-c2ccc(-c3ccccc3)cc2)cs1` (configuration not stated) stands 20.6 µM [falling, partial curve]; under `CCOC(=O)C(CC)/C(C)=N\NC(=O)c1ccccc1O` (configuration not stated), 2.06 µM [falling, full curve]; under `O=S(=O)(Nc1ccccc1N1CCOCC1)c1cccs1`, 20.6 µM [rising, single point].
For `COc1ccc(/C=N/NC(=O)C2C3CCCCC32)cc1OC` (configuration not stated), the AC50 under setting [1] was 6.31 µM [rising, single point].
In the case of `CSc1nsc(SCC(=O)Nc2nc3ccc(C)cc3s2)n1`, under setting [1], the AC50 was 0.326 µM [rising, full curve, poor fit].
The same measure, in the same setting: under `Cn1nc(-c2ccc(Cl)cc2)c2cc(C(=O)NCCN3CCOCC3)sc21` stands 29.1 µM [falling, single point]; under `Cc1occc1C(=O)NNC(=O)c1ccccc1C(=O)O`, 2 µM [falling, full curve].
With `O=C(Nc1ccc(Br)cn1)c1cccc(C(=O)Nc2ccc(Br)cn2)c1`, the AC50 under setting [1] was 14.1 µM [falling, single point].
The same measure, in the same setting: under `O=C(NC(=S)Nc1nc(-c2cccc3ccccc23)cs1)c1cc2ccccc2o1` stands 23.1 µM [rising, partial curve, poor fit]; under `Cc1cc2cc(C=C(C#N)C#N)c(Cl)nc2cc1C`, 13 µM [falling, partial curve, poor fit].

The AC50 is the midpoint of the concentration-response curve, whichever way the signal moves.
